These are yes or no findings as the source states them, for the method shown. For some assays here: In cells and extracts the contact can be indirect. Some binding calls cover weakened binding; strength is not graded here. For some assays here: Where a sequence is shown, tags or fusion partners need not be part of it.

The chains behind the UniProt entries cited, without tags or fusion partners.
UniProt P04608: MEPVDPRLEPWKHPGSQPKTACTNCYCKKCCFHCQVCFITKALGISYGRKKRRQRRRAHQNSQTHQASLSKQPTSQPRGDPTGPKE

Assay [1] has as its target T1, endogenous RelB (human (endogenous in HeLa)) (UniProt Q01201).
T1 sequence: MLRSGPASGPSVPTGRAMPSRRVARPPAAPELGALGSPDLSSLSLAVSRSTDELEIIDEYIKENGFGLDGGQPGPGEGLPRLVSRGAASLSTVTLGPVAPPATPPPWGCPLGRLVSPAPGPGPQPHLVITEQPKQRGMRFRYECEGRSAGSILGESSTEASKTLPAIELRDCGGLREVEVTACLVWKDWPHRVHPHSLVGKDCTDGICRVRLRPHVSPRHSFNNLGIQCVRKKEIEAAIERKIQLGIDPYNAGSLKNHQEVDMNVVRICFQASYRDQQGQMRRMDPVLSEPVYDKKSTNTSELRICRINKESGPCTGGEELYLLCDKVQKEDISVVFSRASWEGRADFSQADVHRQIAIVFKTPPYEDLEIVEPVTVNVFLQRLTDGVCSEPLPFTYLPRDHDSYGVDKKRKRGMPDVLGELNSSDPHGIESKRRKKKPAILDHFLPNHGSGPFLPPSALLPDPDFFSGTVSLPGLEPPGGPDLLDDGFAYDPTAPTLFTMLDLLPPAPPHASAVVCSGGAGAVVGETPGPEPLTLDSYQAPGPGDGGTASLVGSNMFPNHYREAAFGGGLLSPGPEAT
Description: co-IP; lysates of HA-Tat-expressing HeLa cells, in the presence or absence of RNase A (5 μg/ml); IP with rabbit anti-RelB antibodies or control rabbit IgG; western blot.

Assay [2] deals with HIV-1 Tat (bait in the yeast two-hybrid screen) (HIV-1) (UniProt P04608). Description: two-hybrid; yeast two-hybrid screen; HIV-1 Tat as bait, human universal cDNA library as prey; 1 x 10^7 cDNA clones screened.
Assay [3] concerns the target EGFP-Tat (HIV-1) (UniProt P04608). The experiment in a line: co-IP; HEK 293T co-transfected with pFlag-RelB and EGFP-Tat (wild type or deletion mutants of either); IP with anti-EGFP (Tat) or anti-Flag (RelB); western blot. On the technique in general: A western blot detects proteins with antibodies after separation by electrophoresis.
Assay [4] has as its target Myc-Tat (HIV-1) (UniProt P04608). Description: co-IP; HEK 293T co-transfected with Myc-Tat and pFlag-RelB; IP with anti-Flag or anti-Myc antibodies; 50 mM Tris pH 7.4, 150 mM NaCl, 2 mM EDTA, 3% glycerol, 1% Triton-X-100; 4 °C; western blot.
The target of assay [5] is HA-Tat (HIV-1) (UniProt P04608). Description: co-IP; lysate of HA-Tat-expressing HeLa cells; IP with mouse anti-HA antibodies; endogenous RelB detected by western blot.

Turning to HA-Tat (from UniProt P04608 1-86), the binding entry in assay [1] is “binds”.
Turning to “RelB fragment 236-452 aa (clone from the yeast two-hybrid library) (from UniProt Q01201 236-452) (domain or fragment)”, the binding result in assay [2] is given as “binds”.

B1: Flag-RelB (protein, UniProt Q01201 1-579)
chain: T1 sequence
For B1, the binding entry in assay [3] and in assay [4] was “binds” in each case.

B2: endogenous RelB (protein, UniProt Q01201 1-579)
chain: T1 sequence
Turning to B2, the binding entry in assay [5] is listed as “binds”.

The values above are taken from publication PMC6150996.
